The other results are listed elsewhere or left out.
Assays:
Assay in all cases: log2 fold change, soluble protein after heating vs DMSO (PISA); higher = thermal stabilisation; K562 cells, 10 uM, 30 min; active = over 0.2 and 3.5 SD of the protein, either way, in both replicates (recomputed)
[1] = compound: CC1=C(C=C(C=C1)NC(=O)C2=CC(=CC=C2)C(C)(C)C#N)NC3=CC4=C(C=C3)N=CN(C4=O)C
How it was run: (§1)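 Soluble protein was quantified by TMTpro 16plex LC-MS/MS after channel sums were equalised. It was obtained as the supernatant after 21,000xg for 90 min from pooled aliquots of K562 cells (2×10^6 cells/mL, 10 μM compound, 30 min) heated for 3 min across 48°C-58°C and extracted in PBS with 0.5% NP-40 at 4°C. Thermal stability values are relative to control samples and come from duplicates. They are given as log2 fold changes.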

Protein sequences, listed by entry. Tags and fused reporters are not part of them. Lines headed by an entry give the natural chain unless they say otherwise; changes in a name come on top.
UniProt P20742, whole entry, looked up: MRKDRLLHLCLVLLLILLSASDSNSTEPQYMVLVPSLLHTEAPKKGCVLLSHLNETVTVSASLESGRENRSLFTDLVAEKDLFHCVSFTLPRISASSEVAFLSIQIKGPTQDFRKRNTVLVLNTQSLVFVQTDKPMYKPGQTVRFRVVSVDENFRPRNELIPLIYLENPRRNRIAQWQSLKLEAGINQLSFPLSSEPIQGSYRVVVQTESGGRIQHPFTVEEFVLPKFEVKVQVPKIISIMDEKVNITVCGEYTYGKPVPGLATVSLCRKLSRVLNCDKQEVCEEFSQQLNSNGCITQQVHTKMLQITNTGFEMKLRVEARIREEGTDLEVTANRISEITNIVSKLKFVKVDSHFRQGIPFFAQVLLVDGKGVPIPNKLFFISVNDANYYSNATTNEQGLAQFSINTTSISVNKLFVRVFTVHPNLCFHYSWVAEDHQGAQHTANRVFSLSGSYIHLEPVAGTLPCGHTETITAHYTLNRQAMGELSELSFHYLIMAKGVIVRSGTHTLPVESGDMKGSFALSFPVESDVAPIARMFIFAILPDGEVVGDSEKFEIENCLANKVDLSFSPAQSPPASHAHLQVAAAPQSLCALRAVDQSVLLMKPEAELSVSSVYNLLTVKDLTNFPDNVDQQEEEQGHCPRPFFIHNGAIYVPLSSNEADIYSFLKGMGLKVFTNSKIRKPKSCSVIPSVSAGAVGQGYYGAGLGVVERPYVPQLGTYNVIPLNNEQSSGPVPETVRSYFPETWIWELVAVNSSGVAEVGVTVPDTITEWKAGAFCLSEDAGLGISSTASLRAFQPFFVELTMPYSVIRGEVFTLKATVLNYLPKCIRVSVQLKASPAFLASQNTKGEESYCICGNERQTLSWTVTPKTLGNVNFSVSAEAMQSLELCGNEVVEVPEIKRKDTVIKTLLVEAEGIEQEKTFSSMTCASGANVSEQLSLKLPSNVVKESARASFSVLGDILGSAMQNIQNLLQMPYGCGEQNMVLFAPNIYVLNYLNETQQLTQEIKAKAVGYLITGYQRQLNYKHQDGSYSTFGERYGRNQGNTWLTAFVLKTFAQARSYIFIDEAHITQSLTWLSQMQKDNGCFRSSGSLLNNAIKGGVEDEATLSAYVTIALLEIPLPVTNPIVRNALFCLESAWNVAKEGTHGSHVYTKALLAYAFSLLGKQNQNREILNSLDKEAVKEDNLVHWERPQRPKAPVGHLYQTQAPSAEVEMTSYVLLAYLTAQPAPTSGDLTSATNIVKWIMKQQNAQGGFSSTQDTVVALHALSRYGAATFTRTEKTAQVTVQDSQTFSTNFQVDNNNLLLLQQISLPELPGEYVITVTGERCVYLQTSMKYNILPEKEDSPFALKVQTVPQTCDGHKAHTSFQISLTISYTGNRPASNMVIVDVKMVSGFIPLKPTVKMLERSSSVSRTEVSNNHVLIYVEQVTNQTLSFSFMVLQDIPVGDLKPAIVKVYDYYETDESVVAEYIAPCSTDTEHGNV
UniProt Q9UL46, whole entry, looked up: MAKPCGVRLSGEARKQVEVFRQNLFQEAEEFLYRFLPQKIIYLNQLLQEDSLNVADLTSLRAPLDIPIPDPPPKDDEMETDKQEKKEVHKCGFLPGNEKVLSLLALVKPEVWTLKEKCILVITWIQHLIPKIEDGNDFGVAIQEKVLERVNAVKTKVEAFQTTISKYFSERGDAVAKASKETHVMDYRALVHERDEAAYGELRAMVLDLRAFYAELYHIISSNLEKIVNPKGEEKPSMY
UniProt P09417: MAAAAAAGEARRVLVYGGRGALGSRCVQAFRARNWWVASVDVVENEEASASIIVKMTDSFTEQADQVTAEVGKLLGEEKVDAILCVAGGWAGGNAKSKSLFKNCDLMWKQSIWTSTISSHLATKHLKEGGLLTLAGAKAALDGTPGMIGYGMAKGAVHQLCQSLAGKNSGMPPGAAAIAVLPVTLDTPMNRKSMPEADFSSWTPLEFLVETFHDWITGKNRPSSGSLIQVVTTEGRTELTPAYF
UniProt P60900, whole entry, looked up: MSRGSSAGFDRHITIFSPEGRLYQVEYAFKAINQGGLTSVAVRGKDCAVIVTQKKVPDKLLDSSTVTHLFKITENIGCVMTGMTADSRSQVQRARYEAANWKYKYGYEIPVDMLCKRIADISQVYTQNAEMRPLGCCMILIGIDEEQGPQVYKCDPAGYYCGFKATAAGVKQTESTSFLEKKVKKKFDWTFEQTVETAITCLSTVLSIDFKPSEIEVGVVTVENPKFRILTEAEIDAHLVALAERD
UniProt P28066: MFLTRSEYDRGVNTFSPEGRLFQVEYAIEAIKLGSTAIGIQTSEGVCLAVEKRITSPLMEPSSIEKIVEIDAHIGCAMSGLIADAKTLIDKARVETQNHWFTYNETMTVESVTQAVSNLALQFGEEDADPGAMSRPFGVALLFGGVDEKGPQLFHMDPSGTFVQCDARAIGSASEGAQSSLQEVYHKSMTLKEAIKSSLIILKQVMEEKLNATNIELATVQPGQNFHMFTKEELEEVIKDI
UniProt Q969U7: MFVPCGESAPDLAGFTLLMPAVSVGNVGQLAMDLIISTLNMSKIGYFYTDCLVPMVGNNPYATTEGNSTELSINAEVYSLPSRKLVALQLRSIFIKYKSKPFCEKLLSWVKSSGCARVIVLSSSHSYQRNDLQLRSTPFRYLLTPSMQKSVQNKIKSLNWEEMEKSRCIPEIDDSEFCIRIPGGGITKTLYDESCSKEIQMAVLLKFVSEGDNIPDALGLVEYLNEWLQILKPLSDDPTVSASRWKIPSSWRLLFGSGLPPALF
UniProt Q9H0K6: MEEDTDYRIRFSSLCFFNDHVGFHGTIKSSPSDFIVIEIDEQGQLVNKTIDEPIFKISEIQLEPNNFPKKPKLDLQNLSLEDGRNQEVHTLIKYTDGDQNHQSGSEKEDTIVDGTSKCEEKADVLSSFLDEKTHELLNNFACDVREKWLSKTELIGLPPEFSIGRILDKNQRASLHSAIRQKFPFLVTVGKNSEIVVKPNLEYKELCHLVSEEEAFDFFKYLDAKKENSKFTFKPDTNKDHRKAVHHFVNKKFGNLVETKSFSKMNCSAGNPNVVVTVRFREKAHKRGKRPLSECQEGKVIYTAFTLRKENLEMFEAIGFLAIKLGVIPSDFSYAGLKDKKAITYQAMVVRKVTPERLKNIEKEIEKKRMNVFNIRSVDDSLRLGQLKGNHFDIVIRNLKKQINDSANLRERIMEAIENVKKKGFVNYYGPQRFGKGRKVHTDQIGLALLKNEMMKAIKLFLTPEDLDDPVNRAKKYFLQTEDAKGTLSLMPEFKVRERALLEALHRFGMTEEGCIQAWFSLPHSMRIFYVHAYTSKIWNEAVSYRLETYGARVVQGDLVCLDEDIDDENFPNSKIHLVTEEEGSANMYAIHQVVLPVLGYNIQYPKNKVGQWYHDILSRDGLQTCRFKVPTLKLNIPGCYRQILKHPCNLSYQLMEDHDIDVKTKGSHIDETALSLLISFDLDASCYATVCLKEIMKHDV
UniProt Q9BT73: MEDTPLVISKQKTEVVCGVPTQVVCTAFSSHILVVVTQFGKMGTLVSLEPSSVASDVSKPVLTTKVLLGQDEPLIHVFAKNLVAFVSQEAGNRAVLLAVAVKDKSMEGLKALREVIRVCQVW
UniProt P49023, whole entry, looked up: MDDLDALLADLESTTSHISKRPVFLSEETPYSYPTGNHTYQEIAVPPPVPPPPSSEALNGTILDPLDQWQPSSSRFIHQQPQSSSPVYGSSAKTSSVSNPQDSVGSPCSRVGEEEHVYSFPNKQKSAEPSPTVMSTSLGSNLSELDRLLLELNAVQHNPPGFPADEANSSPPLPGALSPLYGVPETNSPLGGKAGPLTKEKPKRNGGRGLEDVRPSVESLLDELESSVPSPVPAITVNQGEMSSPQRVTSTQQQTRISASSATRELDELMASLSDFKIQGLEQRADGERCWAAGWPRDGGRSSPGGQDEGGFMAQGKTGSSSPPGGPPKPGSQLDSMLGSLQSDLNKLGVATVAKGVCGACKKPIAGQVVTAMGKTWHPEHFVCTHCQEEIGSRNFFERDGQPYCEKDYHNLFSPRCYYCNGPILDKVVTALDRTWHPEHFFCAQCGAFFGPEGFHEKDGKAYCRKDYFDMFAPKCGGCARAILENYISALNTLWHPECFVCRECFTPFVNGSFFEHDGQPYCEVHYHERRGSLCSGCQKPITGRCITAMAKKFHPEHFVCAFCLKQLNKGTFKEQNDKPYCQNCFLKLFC
UniProt Q96QR8: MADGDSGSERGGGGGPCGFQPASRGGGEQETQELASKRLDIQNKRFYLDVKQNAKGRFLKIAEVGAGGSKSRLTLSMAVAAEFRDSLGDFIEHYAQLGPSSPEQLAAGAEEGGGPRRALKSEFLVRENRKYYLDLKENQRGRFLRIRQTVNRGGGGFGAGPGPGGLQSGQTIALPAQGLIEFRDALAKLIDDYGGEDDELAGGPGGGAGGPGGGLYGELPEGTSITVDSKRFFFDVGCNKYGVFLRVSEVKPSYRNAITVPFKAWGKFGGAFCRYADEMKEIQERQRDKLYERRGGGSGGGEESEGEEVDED
UniProt Q9BXR0: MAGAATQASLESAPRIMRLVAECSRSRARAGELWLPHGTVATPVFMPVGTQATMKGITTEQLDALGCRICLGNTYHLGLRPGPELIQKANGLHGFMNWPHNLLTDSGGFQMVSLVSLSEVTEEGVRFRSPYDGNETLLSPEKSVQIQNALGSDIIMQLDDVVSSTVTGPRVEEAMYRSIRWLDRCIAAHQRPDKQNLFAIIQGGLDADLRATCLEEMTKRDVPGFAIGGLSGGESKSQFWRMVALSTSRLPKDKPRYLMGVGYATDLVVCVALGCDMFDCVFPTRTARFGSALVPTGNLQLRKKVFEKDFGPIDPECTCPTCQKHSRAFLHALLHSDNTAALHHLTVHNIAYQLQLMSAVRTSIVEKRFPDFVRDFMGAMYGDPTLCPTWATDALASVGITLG
UniProt Q9H7Z7: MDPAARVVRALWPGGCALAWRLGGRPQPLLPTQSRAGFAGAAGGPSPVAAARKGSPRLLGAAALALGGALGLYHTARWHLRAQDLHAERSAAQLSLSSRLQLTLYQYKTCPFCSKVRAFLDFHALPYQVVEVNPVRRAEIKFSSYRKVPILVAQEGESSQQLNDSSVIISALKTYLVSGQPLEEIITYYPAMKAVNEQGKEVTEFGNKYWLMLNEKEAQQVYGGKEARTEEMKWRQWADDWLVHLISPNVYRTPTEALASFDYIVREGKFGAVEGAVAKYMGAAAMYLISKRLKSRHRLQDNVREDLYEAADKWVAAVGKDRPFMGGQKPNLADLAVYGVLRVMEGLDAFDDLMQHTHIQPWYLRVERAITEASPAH
UniProt P20962: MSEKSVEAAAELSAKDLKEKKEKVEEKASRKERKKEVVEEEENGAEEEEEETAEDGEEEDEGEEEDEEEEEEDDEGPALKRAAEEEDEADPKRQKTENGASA
UniProt P23219, whole entry, looked up: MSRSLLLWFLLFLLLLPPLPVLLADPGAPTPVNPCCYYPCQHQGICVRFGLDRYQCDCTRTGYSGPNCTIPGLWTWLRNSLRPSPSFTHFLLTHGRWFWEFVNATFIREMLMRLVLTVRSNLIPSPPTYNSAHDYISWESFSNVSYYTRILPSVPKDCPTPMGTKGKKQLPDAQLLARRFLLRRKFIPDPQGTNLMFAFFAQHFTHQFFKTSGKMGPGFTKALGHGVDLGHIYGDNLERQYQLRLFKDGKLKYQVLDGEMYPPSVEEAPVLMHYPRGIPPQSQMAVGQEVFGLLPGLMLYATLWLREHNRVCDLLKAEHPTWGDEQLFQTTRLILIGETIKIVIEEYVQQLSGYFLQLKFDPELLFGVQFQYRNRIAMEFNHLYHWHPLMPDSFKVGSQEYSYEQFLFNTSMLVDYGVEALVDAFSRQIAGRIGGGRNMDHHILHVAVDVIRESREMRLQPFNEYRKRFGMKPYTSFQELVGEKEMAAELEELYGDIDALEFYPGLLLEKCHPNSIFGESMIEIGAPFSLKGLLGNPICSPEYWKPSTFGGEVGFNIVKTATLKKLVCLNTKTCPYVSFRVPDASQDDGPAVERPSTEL
UniProt Q9Y6I8: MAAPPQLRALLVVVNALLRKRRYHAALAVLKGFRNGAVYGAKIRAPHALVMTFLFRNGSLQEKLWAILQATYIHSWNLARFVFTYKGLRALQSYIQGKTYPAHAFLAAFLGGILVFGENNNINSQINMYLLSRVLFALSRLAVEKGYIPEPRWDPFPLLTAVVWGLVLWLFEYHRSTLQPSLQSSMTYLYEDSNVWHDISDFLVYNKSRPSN
UniProt Q06323: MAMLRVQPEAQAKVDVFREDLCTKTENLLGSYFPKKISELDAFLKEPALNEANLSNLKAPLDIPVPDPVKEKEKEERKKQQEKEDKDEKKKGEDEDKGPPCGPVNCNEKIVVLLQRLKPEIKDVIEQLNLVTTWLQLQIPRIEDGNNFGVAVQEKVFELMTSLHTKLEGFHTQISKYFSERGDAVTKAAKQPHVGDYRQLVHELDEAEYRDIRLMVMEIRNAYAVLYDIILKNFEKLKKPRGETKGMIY

[2] = compound: CC1=C(C=C(C=C1)NC(=O)C2=CC(=CC=C2)N(C)C)NC(=O)C3=CC=C(C=C3)O
How it was run: as §1

[3] = compound: CC1=CC=C(C=C1)SC2=C3C=C(SC3=CN=C2)C(=O)N
How it was run: as §1

[4] = compound: CC1=NC(=CC=C1)C2=C(N=C(N2)C(C)(C)C)C3=CC4=NC=CN=C4C=C3
How it was run: as §1

[5] = compound: CCCCN(Cc1ccc(C(=O)NO)cc1)C(=O)Nc1ccccc1 [Nexturastat A]
How it was run: as §1

[6] = compound: CCCS(=O)(=O)Nc1ccc(F)c(C(=O)c2c[nH]c3ncc(-c4ccc(Cl)cc4)cc23)c1F [vemurafenib]
How it was run: as §1

[7] = compound: CCCS(=O)(=O)Nc1ccc(F)c(C(=O)c2c[nH]c3ncc(Cl)cc23)c1F
How it was run: as §1

[8] = compound: CCCc1cc(C)[nH]c(=O)c1CNC(=O)c1cc(-c2ccnc(N3CCN(C)CC3)c2)cc2c1cnn2C(C)C
How it was run: as §1

[9] = compound: CCN(CC)Cc1ccc2cc(COC(=O)Nc3ccc(C(=O)NO)cc3)ccc2c1 [givinostat]
How it was run: as §1

[10] = compound: CCN(CCCOc1ccc2c(Nc3cc(CC(=O)Nc4cccc(F)c4)[nH]n3)ncnc2c1)CCOP(=O)(O)O [barasertib]
How it was run: as §1

[11] = compound: CC[C@@H]1C(=O)N(C)c2cnc(Nc3ccc(C(=O)NC4CCN(C)CC4)cc3OC)nc2N1C1CCCC1
How it was run: as §1

[12] = compound: CC[C@@H]1C(=O)N(C)c2cnc(Nc3ccc(C(=O)N[C@H]4CC[C@H](N5CCN(CC6CC6)CC5)CC4)cc3OC)nc2N1C(C)C [volasertib]
How it was run: as §1

[13] = compound: CC[C@H](C)N1C=C(C2=C(C=C(C=C21)C3=CN=C(C=C3)N4CCNCC4)C(=O)NCC5=C(C=C(NC5=O)C)C)C
How it was run: as §1

[14] = compound: CC[C@H](C)[C@@H](C(=O)N[C@@H]([C@@H](C)O)C(=O)N[C@@H](CC(C)C)C(=O)[C@]1(CO1)C)NC(=O)[C@H]([C@@H](C)CC)N(C)C(=O)C [epoxomicin]
How it was run: as §1

[15] = compound: CCn1c(C(=O)N(C2CC2)C2CC2)cc2c3c(ncn3C)c(Nc3cc(C)n(C)n3)nc21
How it was run: as §1

[16] = compound: CCn1cc(-c2ccnc3[nH]c(-c4cccc(CN(C)C)c4)cc23)c(-c2ccc(NC(=O)N(C)C)cc2)n1
How it was run: as §1

[17] = compound: CN(C)CC(=O)Nc1ccc2[nH]c(=O)c3ccccc3c2c1
How it was run: as §1

[18] = compound: CN(CCOC1=CC=C(C=C1)C[C@H]2C(=O)NC(=O)S2)C3=CC=CC=N3 (racemic) [rosiglitazone]
How it was run: as §1

[19] = compound: CN1C2=C(C3=C1C(=O)N(N=C3)CC4=CC(=CC=C4)N)SC(=C2)S(=O)C
How it was run: as §1

[20] = compound: CN1CCC(CNc2ccc3ncc(-c4cccc(OC(F)(F)F)c4)n3n2)CC1
How it was run: as §1

Measured: log2 fold change

PZP (UniProt P20742)
inactive: [1] -0.074 | [2] 0.665 | [3] 0.149 | [4] 0.01 | [5] -0.196 | [6] 0.118 | [7] -0.054 | [8] -0.073 | [9] 0.033 | [10] -0.05 | [11] -0.024 | [12] -0.11 | [13] 0.091 | [14] -0.426 | [15] -0.095 | [16] -0.396 | [17] 0.034 | [18] 0.042 | [19] 0.102 | [20] -0.107

PSME2 (UniProt Q9UL46)
inactive: [1] 0.014 | [2] -0.053 | [3] 0.007 | [4] 0.035 | [5] -0.072 | [6] -0.018 | [7] 0.034 | [8] -0.006 | [9] 0.012 | [10] 0.039 | [11] -0.002 | [12] -0.079 | [13] -0.029 | [14] -0.04 | [15] -0.008 | [16] -0.031 | [17] -0.087 | [18] -0.007 | [19] -0.061 | [20] -0.036

QDPR (UniProt P09417)
inactive: [1] -0.007 | [2] 0.006 | [3] 0.045 | [4] -0.001 | [5] -0.008 | [6] -0.036 | [7] -0.018 | [8] -0.029 | [9] -0.013 | [10] 0.018 | [11] 0.019 | [12] 0.055 | [13] -0.031 | [14] 0.012 | [15] 0.041 | [16] 0.004 | [17] -0.04 | [18] -0.03 | [19] -0.004 | [20] -0.007

PSMA6 (UniProt P60900)
inactive: [1] 0.041 | [2] 0.006 | [3] -0.013 | [4] 0.009 | [5] -0.013 | [6] -0.05 | [7] -0.009 | [8] -0.022 | [9] -0.044 | [10] -0.069 | [11] 0.074 | [12] 0.109 | [13] -0.031 | [14] -0.184 | [15] 0.009 | [16] 0.007 | [17] -0.027 | [18] -0.044 | [19] 0.014 | [20] 0.039

PSMA5 (UniProt P28066)
inactive: [1] 0.04 | [2] 0.015 | [3] -0.001 | [4] -0.021 | [5] 0.028 | [6] -0.014 | [7] -0.001 | [8] 0.008 | [9] -0.044 | [10] -0.051 | [11] 0.035 | [12] 0.13 | [13] -0.03 | [14] -0.131 | [15] 0.039 | [16] 0.033 | [17] 0.002 | [18] -0.034 | [19] -0.009 | [20] 0.038

PSMG2 (UniProt Q969U7)
inactive: [1] 0.003 | [2] 0.036 | [3] 0.006 | [4] 0.028 | [5] -0.058 | [6] -0.011 | [7] -0.008 | [8] -0.058 | [9] -0.023 | [10] -0.015 | [11] 0.005 | [12] 0.012 | [13] -0.013 | [14] -0.036 | [15] 0.008 | [16] -0.003 | [17] -0.006 | [18] 0 | [19] -0.087 | [20] -0.013

PUS7L (UniProt Q9H0K6)
inactive: [1] 0.043 | [2] 0.011 | [3] -0.031 | [4] -0.002 | [5] -0.006 | [6] -0.001 | [7] 0.015 | [8] -0.035 | [9] -0.039 | [10] 0.028 | [11] 0.04 | [12] -0.038 | [13] 0.028 | [14] -0.034 | [15] 0.015 | [16] 0.046 | [17] -0.005 | [18] 0.024 | [19] -0.022 | [20] 0.033

PSMG3 (UniProt Q9BT73)
inactive: [1] -0.074 | [2] -0.016 | [3] 0.033 | [4] 0.006 | [5] 0.006 | [6] -0.027 | [7] 0.073 | [8] 0.044 | [9] -0.018 | [10] -0.019 | [11] 0.011 | [12] -0.002 | [13] 0.01 | [14] 0.046 | [15] 0.04 | [16] 0.02 | [17] 0.036 | [18] -0.082 | [19] -0.147 | [20] -0.002

PXN (UniProt P49023)
inactive: [1] 0.019 | [2] 0.018 | [3] 0 | [4] 0.02 | [5] -0.106 | [6] -0.005 | [7] -0.015 | [8] -0.067 | [9] -0.079 | [10] -0.022 | [11] 0.018 | [12] -0.024 | [13] -0.002 | [14] 0.005 | [15] -0.011 | [16] -0.031 | [17] 0.012 | [18] 0.016 | [19] -0.083 | [20] 0.077

PURB (UniProt Q96QR8)
inactive: [1] -0.088 | [2] 0.023 | [3] -0.156 | [4] -0.105 | [5] 0.113 | [6] -0.121 | [7] -0.062 | [8] 0.055 | [9] -0.046 | [10] -0.176 | [11] 0.28 | [12] 0.373 | [13] -0.05 | [14] -0.303 | [15] 0.023 | [16] 0.231 | [17] -0.049 | [18] -0.089 | [19] 0.335 | [20] 0.297

QTRT1 (UniProt Q9BXR0)
inactive: [1] 0.036 | [2] 0.002 | [3] 0.004 | [4] -0.032 | [5] -0.002 | [6] -0.026 | [7] 0.01 | [8] -0.057 | [9] -0.097 | [10] -0.006 | [11] 0.03 | [12] 0.053 | [13] -0.005 | [14] 0.012 | [15] -0.001 | [16] -0.028 | [17] -0.013 | [18] 0.018 | [19] -0.039 | [20] -0.014

PTGES2 (UniProt Q9H7Z7)
inactive: [1] -0.019 | [2] -0.001 | [3] 0.022 | [4] 0.014 | [5] -0.039 | [6] 0.005 | [7] -0.001 | [8] -0.035 | [9] -0.011 | [10] 0.002 | [11] -0.021 | [12] 0.076 | [13] -0.048 | [14] 0.005 | [15] 0.054 | [16] -0.022 | [17] -0.02 | [18] -0.013 | [19] -0.045 | [20] -0.032

PTMS (UniProt P20962)
inactive: [1] 0.018 | [2] 0.03 | [3] 0.018 | [4] 0.073 | [5] -0.053 | [6] 0.031 | [7] 0.024 | [8] 0.011 | [9] -0.006 | [10] 0.002 | [11] 0.013 | [12] 0.078 | [13] -0.007 | [14] 0.021 | [15] 0.01 | [16] -0.009 | [17] 0.007 | [18] -0.012 | [19] -0.002 | [20] -0.056

Pulled one by one from the list above, 2 records:
PURB (UniProt Q96QR8)
inactive: [1] -0.088 | [2] 0.023 | [3] -0.156 | [4] -0.105 | [5] 0.113 | [6] -0.121 | [7] -0.062 | [8] 0.055 | [9] -0.046 | [10] -0.176 | [11] 0.28 | [12] 0.373 | [13] -0.05 | [14] -0.303 | [15] 0.023 | [16] 0.231 | [17] -0.049 | [18] -0.089 | [19] 0.335 | [20] 0.297

QTRT1 (UniProt Q9BXR0)
inactive: [1] 0.036 | [2] 0.002 | [3] 0.004 | [4] -0.032 | [5] -0.002 | [6] -0.026 | [7] 0.01 | [8] -0.057 | [9] -0.097 | [10] -0.006 | [11] 0.03 | [12] 0.053 | [13] -0.005 | [14] 0.012 | [15] -0.001 | [16] -0.028 | [17] -0.013 | [18] 0.018 | [19] -0.039 | [20] -0.014

Remaining list, next part:

PTGS1 isoform 6 (UniProt P23219)
inactive: [1] 0.033 | [2] 0.014 | [3] 0.035 | [4] 0.015 | [5] -0.027 | [6] 0 | [7] -0.023 | [8] 0.066 | [9] -0.004 | [10] 0.003 | [11] 0.031 | [12] 0.06 | [13] 0.013 | [14] -0.003 | [15] 0.065 | [16] 0.029 | [17] -0.056 | [18] 0.019 | [19] 0.001 | [20] 0.108

PXMP4 (UniProt Q9Y6I8)
inactive: [1] -0.019 | [2] 0.033 | [3] 0.012 | [4] -0.02 | [5] 0.055 | [6] 0.238 | [7] 0.038 | [8] -0.074 | [9] -0.026 | [10] 0.049 | [11] 0.042 | [12] -0.12 | [13] -0.028 | [14] -0.023 | [15] -0.046 | [16] -0.036 | [17] 0.061 | [18] 0.016 | [19] -0.057 | [20] 0.07

PSME1 (UniProt Q06323)
inactive: [1] 0.012 | [2] -0.006 | [3] 0 | [4] 0.062 | [5] -0.16 | [6] 0.04 | [7] -0.024 | [8] -0.008 | [9] -0.017 | [10] 0.003 | [11] -0.005 | [12] 0.11 | [13] 0.03 | [14] -0.008 | [15] 0.007 | [16] -0.054 | [17] 0.018 | [18] 0.019 | [19] -0.015 | [20] -0.028

Reference: the supplement of paper PMC10849652
